Source: publication PMC2758594

Molecular target: T1, endogenous hARD1 (human (endogenous in HT1080)) (UniProt P41227)
T1 sequence: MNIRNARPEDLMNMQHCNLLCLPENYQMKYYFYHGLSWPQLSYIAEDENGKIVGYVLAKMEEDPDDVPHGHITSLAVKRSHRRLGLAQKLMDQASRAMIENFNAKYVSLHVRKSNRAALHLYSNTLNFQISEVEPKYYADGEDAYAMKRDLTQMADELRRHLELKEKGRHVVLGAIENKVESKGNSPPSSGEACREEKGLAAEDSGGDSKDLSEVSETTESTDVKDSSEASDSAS
Assay: co-IP; endogenous proteins in HT1080 cells; IP with anti-ARD1, blot with anti-MLCK; cross-checked by changing antibodies

endogenous long MLCK (human (endogenous in HT1080))
binding: binds

These are yes or no findings as the source states them, for the method shown. In cells and extracts the contact can be indirect. A result given as binding can be weak or reduced; the word gives no strength.
